These are yes or no findings as the source states them, for the method shown.
Experiments:
[1] = target: CagA-2CM^W (Helicobacter pylori strain 26695) (UniProt P55980); test: SEC; Superdex 200 10/300 GL, HBS-P running buffer, 4 °C, 0.5 ml/min; CagA constructs alone or mixed with PAR1b (39–364) at a molar ratio of 1:1 or 1:2; fractions on SDS-PAGE, CBB bands quantified; both purified
[2] = target: CagA-C1164S (Helicobacter pylori strain 26695) (UniProt P55980); test: AUC; sedimentation velocity, 20 °C, 10 mM HEPES pH 7.7, 150 mM NaCl, 1 mM EDTA; 5.5 μM CagA-CS, 11 μM PAR1b (39–364), alone or mixed; c(s) by SEDFIT; both purified

Substance	binding [1]	binding [2]
CagA-2CM^W (from UniProt P55980 1-1186)	no binding	–
CagA-C1164S (from UniProt P55980 1-1186)	–	no binding (tested: 5.5 μM)
